Test results as given in the supplement of paper PMC11732987, “Enantioselective OTUD7B fragment discovery through chemoproteomics screening and high-throughput optimisation” (Communications Chemistry, 2025).
This is one part of the list. The data scatter; read single values as rough.

By UniProt entry, the sequences of proteins in these tests, tags left out. Where a name states a change or a piece, a line headed by the entry shows the natural chain unless it says otherwise. Residues count along the entry.
UniProt Q6R327, whole entry, looked up: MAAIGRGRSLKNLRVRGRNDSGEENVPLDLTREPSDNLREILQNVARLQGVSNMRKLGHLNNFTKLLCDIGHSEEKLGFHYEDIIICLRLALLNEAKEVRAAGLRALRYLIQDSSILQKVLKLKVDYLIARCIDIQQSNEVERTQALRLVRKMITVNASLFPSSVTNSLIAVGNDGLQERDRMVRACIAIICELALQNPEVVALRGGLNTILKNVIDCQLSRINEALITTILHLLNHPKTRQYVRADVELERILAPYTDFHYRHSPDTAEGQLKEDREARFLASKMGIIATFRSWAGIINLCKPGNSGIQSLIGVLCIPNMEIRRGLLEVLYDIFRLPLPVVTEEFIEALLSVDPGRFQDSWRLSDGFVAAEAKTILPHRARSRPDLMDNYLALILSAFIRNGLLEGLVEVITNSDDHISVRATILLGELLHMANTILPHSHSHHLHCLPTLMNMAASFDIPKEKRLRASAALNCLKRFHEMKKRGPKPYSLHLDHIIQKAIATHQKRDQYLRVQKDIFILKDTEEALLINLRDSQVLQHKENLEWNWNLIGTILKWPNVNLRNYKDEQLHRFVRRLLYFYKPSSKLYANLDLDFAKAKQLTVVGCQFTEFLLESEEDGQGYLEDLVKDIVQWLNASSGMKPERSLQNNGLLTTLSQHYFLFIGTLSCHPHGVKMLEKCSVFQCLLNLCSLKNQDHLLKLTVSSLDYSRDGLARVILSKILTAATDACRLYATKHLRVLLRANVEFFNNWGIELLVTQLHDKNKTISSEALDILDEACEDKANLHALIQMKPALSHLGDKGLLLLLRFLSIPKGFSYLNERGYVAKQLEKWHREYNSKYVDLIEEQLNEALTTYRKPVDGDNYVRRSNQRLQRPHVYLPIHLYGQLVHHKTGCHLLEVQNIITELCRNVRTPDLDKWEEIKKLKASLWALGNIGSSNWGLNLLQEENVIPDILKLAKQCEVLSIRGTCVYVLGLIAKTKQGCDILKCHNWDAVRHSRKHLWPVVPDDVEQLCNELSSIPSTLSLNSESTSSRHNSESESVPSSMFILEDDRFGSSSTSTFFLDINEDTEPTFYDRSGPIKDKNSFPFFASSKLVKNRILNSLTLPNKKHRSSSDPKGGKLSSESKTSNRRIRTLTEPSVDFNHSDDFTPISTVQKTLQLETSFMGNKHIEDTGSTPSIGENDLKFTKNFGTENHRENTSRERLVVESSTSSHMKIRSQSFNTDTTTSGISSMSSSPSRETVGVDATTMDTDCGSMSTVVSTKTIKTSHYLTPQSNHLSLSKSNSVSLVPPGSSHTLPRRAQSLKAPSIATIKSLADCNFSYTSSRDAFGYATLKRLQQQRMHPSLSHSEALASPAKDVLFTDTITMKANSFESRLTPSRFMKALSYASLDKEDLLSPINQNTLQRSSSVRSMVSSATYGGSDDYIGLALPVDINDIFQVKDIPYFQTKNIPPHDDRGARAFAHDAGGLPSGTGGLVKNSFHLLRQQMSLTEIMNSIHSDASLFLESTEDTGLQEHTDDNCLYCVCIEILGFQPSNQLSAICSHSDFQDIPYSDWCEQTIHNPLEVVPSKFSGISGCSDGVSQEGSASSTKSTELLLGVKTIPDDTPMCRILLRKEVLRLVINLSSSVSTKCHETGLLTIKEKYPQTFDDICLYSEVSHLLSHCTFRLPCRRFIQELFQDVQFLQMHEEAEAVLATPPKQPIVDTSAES
UniProt Q5T160, 295-315: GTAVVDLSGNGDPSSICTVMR
UniProt O94762, 456-475: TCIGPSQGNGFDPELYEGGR
UniProt P49792, whole entry, looked up: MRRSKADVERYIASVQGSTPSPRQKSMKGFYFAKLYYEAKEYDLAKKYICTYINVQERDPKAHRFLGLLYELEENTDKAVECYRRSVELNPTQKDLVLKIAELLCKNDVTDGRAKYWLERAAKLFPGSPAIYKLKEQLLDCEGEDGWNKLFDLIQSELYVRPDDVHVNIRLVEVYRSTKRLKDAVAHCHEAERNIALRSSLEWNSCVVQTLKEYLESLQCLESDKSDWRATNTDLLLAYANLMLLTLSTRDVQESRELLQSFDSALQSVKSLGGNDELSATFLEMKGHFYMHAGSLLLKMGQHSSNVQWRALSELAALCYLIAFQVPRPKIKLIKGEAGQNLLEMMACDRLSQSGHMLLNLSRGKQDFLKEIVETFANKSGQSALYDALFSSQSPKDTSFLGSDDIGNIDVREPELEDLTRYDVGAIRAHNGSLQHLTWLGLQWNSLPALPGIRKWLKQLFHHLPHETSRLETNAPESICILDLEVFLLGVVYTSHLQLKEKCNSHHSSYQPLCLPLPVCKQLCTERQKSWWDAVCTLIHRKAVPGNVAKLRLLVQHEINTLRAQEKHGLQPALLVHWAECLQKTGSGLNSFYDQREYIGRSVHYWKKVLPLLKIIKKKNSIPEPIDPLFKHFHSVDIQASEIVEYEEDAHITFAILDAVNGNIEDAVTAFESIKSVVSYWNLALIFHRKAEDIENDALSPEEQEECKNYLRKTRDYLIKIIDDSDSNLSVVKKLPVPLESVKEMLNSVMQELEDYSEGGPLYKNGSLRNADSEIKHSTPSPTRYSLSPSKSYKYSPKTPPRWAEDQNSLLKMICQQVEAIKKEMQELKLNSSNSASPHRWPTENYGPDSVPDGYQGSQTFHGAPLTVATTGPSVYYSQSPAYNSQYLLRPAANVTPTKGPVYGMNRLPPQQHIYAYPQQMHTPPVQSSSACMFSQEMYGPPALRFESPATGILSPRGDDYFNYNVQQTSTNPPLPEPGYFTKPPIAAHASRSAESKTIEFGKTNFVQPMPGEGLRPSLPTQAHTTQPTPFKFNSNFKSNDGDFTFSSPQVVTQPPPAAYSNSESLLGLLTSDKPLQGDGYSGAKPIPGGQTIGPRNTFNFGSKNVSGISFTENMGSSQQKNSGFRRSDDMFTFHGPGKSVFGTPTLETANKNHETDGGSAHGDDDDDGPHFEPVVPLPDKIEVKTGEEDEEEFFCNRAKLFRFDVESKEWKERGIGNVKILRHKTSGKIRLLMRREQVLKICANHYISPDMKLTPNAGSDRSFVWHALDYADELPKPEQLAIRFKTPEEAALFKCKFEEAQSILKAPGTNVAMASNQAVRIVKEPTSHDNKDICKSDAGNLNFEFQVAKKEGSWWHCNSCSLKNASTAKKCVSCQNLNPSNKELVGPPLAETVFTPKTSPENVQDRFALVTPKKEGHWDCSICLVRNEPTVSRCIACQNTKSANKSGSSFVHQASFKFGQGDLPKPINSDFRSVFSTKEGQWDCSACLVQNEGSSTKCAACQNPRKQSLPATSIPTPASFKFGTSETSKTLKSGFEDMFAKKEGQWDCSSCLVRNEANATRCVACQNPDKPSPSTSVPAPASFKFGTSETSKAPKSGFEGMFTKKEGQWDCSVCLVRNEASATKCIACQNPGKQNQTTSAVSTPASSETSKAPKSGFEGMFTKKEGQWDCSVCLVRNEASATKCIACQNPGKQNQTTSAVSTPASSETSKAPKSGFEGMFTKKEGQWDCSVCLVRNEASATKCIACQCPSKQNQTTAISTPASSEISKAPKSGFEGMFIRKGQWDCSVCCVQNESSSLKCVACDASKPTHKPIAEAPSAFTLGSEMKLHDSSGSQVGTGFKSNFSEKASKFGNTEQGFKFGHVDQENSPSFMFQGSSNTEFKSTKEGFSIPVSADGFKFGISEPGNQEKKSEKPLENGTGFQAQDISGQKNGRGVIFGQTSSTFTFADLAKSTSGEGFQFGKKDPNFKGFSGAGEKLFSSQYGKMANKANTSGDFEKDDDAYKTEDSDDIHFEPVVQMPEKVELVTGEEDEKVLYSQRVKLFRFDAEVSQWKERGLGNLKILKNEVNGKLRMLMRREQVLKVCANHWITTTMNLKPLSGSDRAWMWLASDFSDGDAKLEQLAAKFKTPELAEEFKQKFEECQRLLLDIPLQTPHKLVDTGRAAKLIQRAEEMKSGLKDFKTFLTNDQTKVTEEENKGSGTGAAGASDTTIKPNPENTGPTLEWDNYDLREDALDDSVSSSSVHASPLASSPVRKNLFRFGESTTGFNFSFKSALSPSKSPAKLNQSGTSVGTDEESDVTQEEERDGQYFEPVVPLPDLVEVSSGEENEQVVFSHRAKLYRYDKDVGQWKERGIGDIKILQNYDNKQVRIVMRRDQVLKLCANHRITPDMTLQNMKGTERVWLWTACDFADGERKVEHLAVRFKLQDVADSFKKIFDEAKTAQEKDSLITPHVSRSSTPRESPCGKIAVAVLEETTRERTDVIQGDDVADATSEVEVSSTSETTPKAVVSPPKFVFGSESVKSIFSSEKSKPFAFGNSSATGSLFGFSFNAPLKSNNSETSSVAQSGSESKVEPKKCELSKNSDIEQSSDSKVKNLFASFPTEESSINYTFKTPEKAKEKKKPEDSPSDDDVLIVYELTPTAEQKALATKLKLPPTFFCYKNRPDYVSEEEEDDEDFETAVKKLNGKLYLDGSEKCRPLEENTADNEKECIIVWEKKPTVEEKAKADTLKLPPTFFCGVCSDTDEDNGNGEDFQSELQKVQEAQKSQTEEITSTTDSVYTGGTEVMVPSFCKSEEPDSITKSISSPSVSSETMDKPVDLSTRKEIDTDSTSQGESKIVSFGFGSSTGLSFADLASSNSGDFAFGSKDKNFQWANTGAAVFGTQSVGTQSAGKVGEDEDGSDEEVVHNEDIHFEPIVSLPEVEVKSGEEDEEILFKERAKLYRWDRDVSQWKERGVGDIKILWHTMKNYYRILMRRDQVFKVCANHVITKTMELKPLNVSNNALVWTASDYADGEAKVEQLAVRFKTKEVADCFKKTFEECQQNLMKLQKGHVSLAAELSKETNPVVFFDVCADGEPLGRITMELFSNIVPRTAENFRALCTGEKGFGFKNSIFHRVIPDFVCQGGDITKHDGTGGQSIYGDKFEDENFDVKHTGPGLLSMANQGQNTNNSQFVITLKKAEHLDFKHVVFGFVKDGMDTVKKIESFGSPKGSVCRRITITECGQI
UniProt P35251, 658-681: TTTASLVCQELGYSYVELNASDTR
UniProt Q5T481: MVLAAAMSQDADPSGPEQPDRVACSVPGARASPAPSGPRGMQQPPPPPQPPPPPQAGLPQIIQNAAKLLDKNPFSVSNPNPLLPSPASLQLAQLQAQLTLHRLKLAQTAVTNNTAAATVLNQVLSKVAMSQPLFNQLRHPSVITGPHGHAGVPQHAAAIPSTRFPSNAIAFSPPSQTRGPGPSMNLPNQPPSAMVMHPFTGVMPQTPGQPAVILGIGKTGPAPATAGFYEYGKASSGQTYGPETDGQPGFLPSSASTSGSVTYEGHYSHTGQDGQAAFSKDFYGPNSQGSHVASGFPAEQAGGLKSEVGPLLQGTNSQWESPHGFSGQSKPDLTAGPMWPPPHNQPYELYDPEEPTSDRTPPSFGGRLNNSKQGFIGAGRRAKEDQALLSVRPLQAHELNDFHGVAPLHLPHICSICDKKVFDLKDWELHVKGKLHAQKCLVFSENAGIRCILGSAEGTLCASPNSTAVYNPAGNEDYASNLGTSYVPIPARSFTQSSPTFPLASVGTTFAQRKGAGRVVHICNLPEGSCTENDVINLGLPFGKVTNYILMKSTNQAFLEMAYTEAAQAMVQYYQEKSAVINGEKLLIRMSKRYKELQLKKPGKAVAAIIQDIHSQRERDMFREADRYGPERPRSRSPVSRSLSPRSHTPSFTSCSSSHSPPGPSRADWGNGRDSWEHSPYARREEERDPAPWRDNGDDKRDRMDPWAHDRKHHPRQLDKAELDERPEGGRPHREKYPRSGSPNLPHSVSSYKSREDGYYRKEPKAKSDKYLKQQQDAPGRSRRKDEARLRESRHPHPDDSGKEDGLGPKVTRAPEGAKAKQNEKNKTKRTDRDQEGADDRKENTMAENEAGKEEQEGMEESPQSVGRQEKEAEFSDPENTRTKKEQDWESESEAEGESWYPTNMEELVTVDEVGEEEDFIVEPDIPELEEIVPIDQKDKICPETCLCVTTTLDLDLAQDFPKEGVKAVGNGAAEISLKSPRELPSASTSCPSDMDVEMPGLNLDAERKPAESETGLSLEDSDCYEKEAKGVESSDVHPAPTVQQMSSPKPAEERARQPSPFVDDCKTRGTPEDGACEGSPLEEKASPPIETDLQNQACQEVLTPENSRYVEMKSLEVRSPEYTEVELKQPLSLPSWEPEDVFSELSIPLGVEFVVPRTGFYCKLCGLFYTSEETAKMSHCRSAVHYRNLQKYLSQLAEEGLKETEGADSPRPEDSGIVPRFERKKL
UniProt O60930: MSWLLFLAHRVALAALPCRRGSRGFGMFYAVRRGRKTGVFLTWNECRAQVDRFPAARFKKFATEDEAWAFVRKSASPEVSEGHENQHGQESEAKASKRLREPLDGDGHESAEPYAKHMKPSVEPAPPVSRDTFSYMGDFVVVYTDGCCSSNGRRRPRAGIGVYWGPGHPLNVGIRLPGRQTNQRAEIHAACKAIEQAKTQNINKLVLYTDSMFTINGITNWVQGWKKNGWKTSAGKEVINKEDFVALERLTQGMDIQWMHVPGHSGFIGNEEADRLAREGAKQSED

These targets were tested with ClCC(=O)N[C@H]1CCCc2ccccc12 (assay: log2 mean competition ratio of IA-DTB cysteine labelling (DMSO/compound) (log2 ratio); higher = stronger cysteine engagement by compound). Details: 50 µM; treatment time: 4 h; cell line lysate: HEK293T.
Protocol: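 IA-DTB competitive cysteine chemoproteomics in HEK293T RIPA lysate. Lysates were treated with compound 29 or 30 at 50 or 200 µM for 4 h, then IA-DTB (500 µM, 1 h), trypsin-digested, NeutrAvidin-enriched and analysed by diaPASEF. Competition ratio = intensity DMSO / intensity compound (n=4 treated, n=64 DMSO); binding: mean log2 CR ≥ 1 and p ≤ 0.05 plus QC filters. Target is the cysteine site.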

Target | log2 mean competition ratio
RICTOR C218 (UniProt Q6R327) | -0.124
RARS2 C311 (UniProt Q5T160) | -0.0774
RECQL5 C457 (UniProt O94762) | -0.162
RAP1GDS1 C117 (UniProt P52306) | -0.028
RAP1GAP2 C584 (UniProt Q684P5) | 0.315
RANBP2 C2710 (UniProt P49792) | -0.0538
RBM28 C33 (UniProt Q9NW13) | 0.478
RFC4 C141 (UniProt P35249) | -0.103
RANBP2 C2982 (UniProt P49792) | 0.0929
RFC1 C665 (UniProt P35251) | 0.22
RB1 C438 (UniProt P06400) | -0.307
RICTOR C68 (UniProt Q6R327) | -0.583
RIPOR1 C925 (UniProt Q6ZS17) | -0.0721
RBM20 C1024 (UniProt Q5T481) | -0.164
RBM26 C294 (UniProt Q5T8P6) | 0.0561
RANBP6 C1065 (UniProt O60518) | -0.221
RNASEH1 C191 (UniProt O60930) | 0.3
RELL1 C88 (UniProt Q8IUW5) | -0.499
RALGAPA2 C495 (UniProt Q2PPJ7) | -0.386
RANBP2 C3122 (UniProt P49792) | -0.459

Same assay, conditions: 200 µM; treatment time: 4 h; cell line lysate: HEK293T

Target | log2 mean competition ratio
RICTOR C218 (UniProt Q6R327) | -0.297
RARS2 C311 (UniProt Q5T160) | -0.0166
RECQL5 C457 (UniProt O94762) | 0.353
RAP1GDS1 C117 (UniProt P52306) | 0.209
RAP1GAP2 C584 (UniProt Q684P5) | 0.0957
RANBP2 C2710 (UniProt P49792) | 0.332
RBM28 C33 (UniProt Q9NW13) | 0.321
RFC4 C141 (UniProt P35249) | -0.129
RANBP2 C2982 (UniProt P49792) | -0.495
RFC1 C665 (UniProt P35251) | -0.192
RB1 C438 (UniProt P06400) | -0.118
RICTOR C68 (UniProt Q6R327) | 0.0834
RIPOR1 C925 (UniProt Q6ZS17) | 0.318
RBM20 C1024 (UniProt Q5T481) | 0.0603
RBM26 C294 (UniProt Q5T8P6) | -0.303
RANBP6 C1065 (UniProt O60518) | 0.0243
RNASEH1 C191 (UniProt O60930) | 0.0976
RELL1 C88 (UniProt Q8IUW5) | -0.18
RALGAPA2 C495 (UniProt Q2PPJ7) | -0.437
RANBP2 C3122 (UniProt P49792) | -0.165
